Measurements reported in US20230212549A1 (priority 2021, published 2023).
For some assays here: Some peptides are written in HELM: one residue between dots, names in brackets for other building blocks, links after the first $.

Legend:
[1] = general procedure: Fmoc solid-phase peptide synthesis; Rink amide; conditions: whole synthesis, scale 50 μmol
[2] = general procedure: Fmoc solid-phase peptide synthesis; polystyrene (PS, DEG), ChemMatrix (CM) or TentaGel (TG) resin; linkers trityl, wang and rink amide; conditions: for step yield: late stage modification step; for conjugation yield: conjugation step
[3] = general procedure: Fmoc solid-phase peptide synthesis; trityl; conditions: whole synthesis, scale 50 μmol, thioether ring
[4] = general procedure: Fmoc solid-phase peptide synthesis; Fmoc-Cys(Trt) WANG Tentagel; conditions: whole synthesis, scale 50 μmol, thioether ring
[5] = whole synthesis, overall, scale of the general procedure 50 μmol and 100 μmol, thioether ring
[6] = whole synthesis, scale 100 μmol, thioether ring

Q: Which isolated mass ([1]; run 1) does the source give for “Hex-Cys(tMeBn(H-PP))-Pro-Pro-Thr-Gln-Phe-Cys]-Asp-NH2” here?
A: 15.3 mg

Q: What about the isolated mass ([1]; run 2) of the same substance?
A: 17.2 mg

Q: What about the isolated yield ([2]; whole synthesis, on resin loading, scale of the general procedure 50 μmol and 100 μmol, run 1) of the same substance?
A: 25.3%

Q: And the isolated yield ([2]; whole synthesis, on resin loading, scale of the general procedure 50 μmol and 100 μmol, run 2)?
A: 28.4%

Q: Which isolated mass ([1]; thioether ring) does the source give for “Hex-[Cys(3MeBn)-Pro-Pro-Thr-Gln-Phe-Cys]-Asp-NH2” here?
A: 16.0 mg

Q: What about the isolated yield ([2]; whole synthesis, scale 50 μmol, thioether ring) of the same substance?
A: 28.8%

Q: Which step yield ([2]; thioether ring, run 1) does the source give for “Hex-[Cys(tMeBn(DOTA-AET))-Pro-Pro-Thr-Gln-Phe-Cys]-OH [3BP-3624]” here?
A: 82%

Q: For “Hex-[Cys(tMeBn(DOTA-AET))-Pro-Pro-Thr-Gln-Phe-Cysol]”, which isolated mass [3] is on record?
A: 7.8 mg

Q: And the isolated yield [2, 5]?
A: 10.7% overall yield

Q: Which step yield ([2]; thioether ring, run 1) does the source give for “Hex-[Cys(tMeBn(DOTA-PP))-Pro-Pro-Thr-Gln-Phe-Cys]-Asp-NH2 [3BP-3590]” here?
A: 68.1%

Q: For “Hex-[Cys(tMeBn(DTPA(tBu)4-O2Oc-AET))-Pro-Pro-Thr-Gln-Phe-Cys]-OH”, which conjugation yield [2] is on record?
A: 53% yield

Q: For “Hex-[Cys(tMeBn(H-AET))-Pro-Pro-Thr-Gln-Phe-Cys]-OH”, which isolated mass ([3]; run 1) is on record?
A: 17.8 mg

Q: And the isolated mass ([3]; run 2)?
A: 19.47 mg

Q: What about the isolated yield ([2]; whole synthesis, on resin loading, scale of the general procedure 50 μmol and 100 μmol, thioether ring, run 1) of the same substance?
A: 32.8%

Q: And the isolated yield ([2]; whole synthesis, on resin loading, scale of the general procedure 50 μmol and 100 μmol, thioether ring, run 2)?
A: 35.9%

Q: With “Hex-[Cys(tMeBn(H-O2Oc-AET))-Pro-Pro-Thr-Gln-Phe-Cys]-OH” as the substance, how does the conjugation yield [2] read?
A: 29% yield

Q: For “Hex-[Cys(tMeBn(NODAGA-AET))-Pro-Pro-Thr-Gln-Phe-Cys]-OH”, which step yield ([2]; thioether ring) is on record?
A: 80%

Q: With “Hex-[Cys-(tMeBn(Bio-Ttds-Ttds-Ttds-Ttds-AET))-Pro-Pro-Thr-Gln-Phe-Cys]-OH” as the substance, how does the conjugation yield ([2]; thioether ring) read?
A: 18% yield

Q: Which conjugation yield ([2]; thioether ring) does the source give for “Hex-[Cys-(tMeBn(DTPA-O2Oc-AET))-Pro-Pro-Thr-Gln-Phe-Cys]-OH” here?
A: 8%

Q: What about the step yield ([2]; thioether ring) of the same substance?
A: 53% yield

Q: For “Hex-[Cys-(tMeBn(H-HYNIC-AET))-Pro-Pro-Thr-Gln-Phe-Cys]-OH”, which conjugation yield ([2]; thioether ring) is on record?
A: 3.4%

Q: And the step yield ([2]; thioether ring)?
A: 7% yield

Q: Which conjugation yield ([2]; thioether ring) does the source give for “Hex-[Cys-(tMeBn(N4Ac-02Oc-AET))-Pro-Pro-Thr-Gln-Phe-Cys]-OH” here?
A: 55% yield

Q: Which isolated yield [2, 6] does the source give for “Hex-[Cys-(tMeBn(NOTA-AET))-Pro-Pro-Thr-Gln-Phe-Cys]-OH” here?
A: 4%

Q: Which isolated yield [2, 6] does the source give for “Hex-[Cys-(tMeBn(NOTA-Ttds-AET))-Pro-Pro-Thr-Gln-Phe-Cys]-OH” here?
A: 6%

Q: Which step yield ([2]; thioether ring) does the source give for “Hex-[Cys-(tMeBn(ReON4Ac-02Oc-AET))-Pro-Pro-Thr-Gln-Phe-Cys]-OH” here?
A: 21% yield

Q: For “Hex-[Cys-Pro-Pro-Thr-Gln-Phe-Cys]-Asp-NH2 (m-xylene cyclised)”, which isolated yield ([1]; on resin loading) is on record?
A: 30.4%

Q: And the isolated mass [1]?
A: 16.9 mg

Q: For “N4Ac-Glu(AGLU)-Ttds-Nle-[Cys-(3MeBn)-Pro-Pro-Thr-Gln-Phe-Cys]-OH”, which isolated yield [4] is on record?
A: 10%

Q: For “PEPTIDE1{[Hex].C.P.P.T.Q.F.C.D.[am]}|CHEM1{[tMeBn(DOTA-PP)]}$PEPTIDE1,CHEM1,2:R3-1:R1|PEPTIDE1,CHEM1,8:R3-1:R2$$$V2.0”, which conjugation yield [2] is on record?
A: 85%

Q: For “PEPTIDE1{[Hex].C.P.P.T.Q.F.C}|CHEM1{[tMeBn(DOTA-AET)]}$PEPTIDE1,CHEM1,2:R3-1:R1|PEPTIDE1,CHEM1,8:R3-1:R2$$$V2.0”, which conjugation yield [2] is on record?
A: 77.4% yield

Q: For “Pentyl-SO2-[Cys(tMeBn(DOTA-PP))-Pro-Pro-Thr-Gln-Phe-Cys]-Asp-NH2”, which isolated yield [2, 5] is on record?
A: 8.7% overall yield

Q: What does the source list for “nBu-CAyl-[Cys(tMeBn(DOTA-AET))-Pro-Pro-Thr-Gln-Phe-Cys]-OH”?
A: isolated yield ([2]; whole synthesis, scale of the general procedure 50 μmol and 100 μmol, thioether ring): 25.6% yield; isolated mass ([2]; whole synthesis, thioether ring): 28.28 mg

Q: With “nBu-CAyl-[Cys(tMeBn(NOPO-AET))-Pro-Pro-Thr-Gln-Phe-Cys]-OH” as the substance, how does the conjugation yield ([2]; thioether ring) read?
A: 32.0%
